Data as given in PubChem BioAssay AID504744 (Drosophila RNAi Screening Center, 2011)
Screen: 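Identify dsRNAs that increase or decrease phospho-dAkt after insulin treatment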 (primary screen). System: Drosophila Kc167 cells. Knock-down reagent: long dsRNA against Drosophila genes, 250 ng dsRNA per well of a 384-well plate. Timing: 3 days of knock-down, then overnight serum-free starvation before stimulation. Conditions: bovine insulin at 387 nM for 10 minutes after 12 h without serum. Measurement: 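In-cell antibody fluorescence for phospho-dAkt in each well over DNA-dye signal, with log2 residuals expressed as z-scores adjusted for cell count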. Rule for the call: 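Under insulin, a gene counts as a hit if the average z-score of two replicates lies above 2.5 or below -2.5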.
The deposit covers about 23,000 reagents; shown is a random part of those that have a named target and a result. Of all reagents, 98 (0.43%) were called active. 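Only hit calls are given; the phospho-dAkt signals, z-scores and hit direction were not deposited.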 A plus sign joins genes that one reagent is predicted to hit.

predicted target | amplicon | activity call
Tsp42Ea (Tetraspanin 42Ea) | DRSC04982 | inactive
Tsp42Ea (Tetraspanin 42Ea) | DRSC06792 | inactive
CG33330 (retired record) | DRSC13053 | inactive
CG33330 (retired record) | DRSC15495 | inactive
CG7497 | DRSC10857 | inactive
CG12128 + CG1407 | DRSC06446 | inactive
CG34175 | DRSC00424 | inactive
CG33322 | DRSC03204 | inactive
Coq7 + shf | DRSC18448 | inactive
CG42531 | DRSC05318 | inactive
wun2 (wunen-2) | DRSC07566 | inactive
Ntl (Neurotransmitter transporter-like) | DRSC03003 | inactive
Med (Medea) | DRSC16737 | inactive
ND-51L2 (NADH dehydrogenase (ubiquinone) 51 kDa subunit-like 2) | DRSC07080 | inactive
ThrRS (Threonyl-tRNA synthetase) | DRSC02843 | inactive
CG11920 | DRSC14439 | inactive
CG31697 | DRSC22273 | inactive
CG33325 | DRSC12699 | inactive
CG5726 | DRSC06946 | inactive
CG12608 | DRSC19472 | inactive
qless | DRSC15103 | inactive
qless | DRSC15507 | inactive
CG30340 | DRSC05167 | inactive
RpS10a (Ribosomal protein S10a) | DRSC14161 | inactive
Snmp2 (Sensory neuron membrane protein 2) | DRSC10228 | inactive
Snmp2 (Sensory neuron membrane protein 2) | DRSC10843 | inactive
E2f1 (E2F transcription factor 1) | DRSC16655 | inactive
CG8673 | DRSC03105 | inactive
CG4372 | DRSC04466 | inactive
Cpr51A (Cuticular protein 51A) | DRSC05969 | inactive
CG14229 | DRSC19585 | inactive
CG3732 | DRSC04410 | inactive
XNP | DRSC15594 | inactive
CG42538 | DRSC09412 | inactive
wrm1 (wurmchen 1) | DRSC11007 | inactive
Vm26Aa (Vitelline membrane 26Aa) | DRSC03472 | inactive
CG15916 | DRSC19740 | inactive
ckd (cracked) | DRSC08418 | inactive
mTor (mechanistic Target of rapamycin) | DRSC02811 | active
ssp (sunspot) | DRSC10252 | inactive
gammaTub37C (gamma-Tubulin at 37C) | DRSC03535 | inactive
amos (absent MD neurons and olfactory sensilla) | DRSC03484 | inactive
CCAP-R (Crustacean cardioactive peptide receptor) | DRSC14891 | inactive
CCAP-R (Crustacean cardioactive peptide receptor) | DRSC15967 | inactive
CG12744 | DRSC06164 | inactive
Pgant9 (Polypeptide N-Acetylgalactosaminyltransferase 9) | DRSC05621 | inactive
Pgant9 (Polypeptide N-Acetylgalactosaminyltransferase 9) | DRSC06584 | inactive
Pgant9 (Polypeptide N-Acetylgalactosaminyltransferase 9) | DRSC07185 | inactive
Pgant9 (Polypeptide N-Acetylgalactosaminyltransferase 9) | DRSC07186 | inactive
Pgant9 (Polypeptide N-Acetylgalactosaminyltransferase 9) | DRSC07187 | inactive
Pgant9 (Polypeptide N-Acetylgalactosaminyltransferase 9) | DRSC07189 | inactive
Pgant9 (Polypeptide N-Acetylgalactosaminyltransferase 9) | DRSC21807 | inactive
Pgant9 (Polypeptide N-Acetylgalactosaminyltransferase 9) | DRSC22076 | inactive
CG33278 | DRSC10336 | inactive
ArfGAP1 (ADP-ribosylation factor GTPase activating protein 1) | DRSC11173 | inactive
dar1 (dendritic arbor reduction 1) | DRSC08049 | inactive
dar1 (dendritic arbor reduction 1) | DRSC08233 | inactive
Vmat (Vesicular monoamine transporter) | DRSC06961 | inactive
Vmat (Vesicular monoamine transporter) | DRSC06962 | inactive
Vmat (Vesicular monoamine transporter) | DRSC22223 | inactive
rg (rugose) | DRSC17377 | inactive
rg (rugose) | DRSC17726 | inactive
rg (rugose) | DRSC18049 | inactive
CG32564 | DRSC19933 | inactive
CG34045 | DRSC05787 | inactive
CG8086 | DRSC03078 | inactive
CG8086 | DRSC03079 | inactive
Elp4 (Elongator complex protein 4) | DRSC02999 | inactive
CG10132 | DRSC02013 | inactive
Tsp42Er (Tetraspanin 42Er) | DRSC06183 | inactive
Ephrin | DRSC17165 | inactive
Dronc (Death regulator Nedd2-like caspase) | DRSC11231 | inactive
Ir20a (Ionotropic receptor 20a) | DRSC20506 | inactive
CG17650 | DRSC00510 | inactive
Gs1 (Glutamine synthetase 1) | DRSC00753 | inactive
GstZ1 (Glutathione S transferase Z1) | DRSC16478 | inactive
Cyp28c1 (Cytochrome P450 28c1) | DRSC20236 | inactive
Vm34Ca (Vitelline membrane 34Ca) | DRSC03475 | inactive
l(3)62Be (retired record) | DRSC08231 | inactive
CG34200 | DRSC04804 | inactive
GILT2 (Gamma-interferon-inducible lysosomal thiol reductase 2) | DRSC14196 | inactive
Ykt6 (YKT6 v-SNARE) | DRSC17970 | inactive
LanA (Laminin A) | DRSC11207 | inactive
tutl (turtle) | DRSC00441 | inactive
tutl (turtle) | DRSC00442 | inactive
tutl (turtle) | DRSC00443 | inactive
CCT1 (Chaperonin containing TCP1 subunit 1) | DRSC16877 | inactive
CG4957 | DRSC02793 | inactive
Spn77Ba (Serpin 77Ba) | DRSC10693 | inactive
CG17721 | DRSC15253 | inactive
CG8245 | DRSC04901 | inactive
CG6660 | DRSC16087 | inactive
Sec23 (Secretory 23) | DRSC12387 | active
CG13545 | DRSC04187 | inactive
Polr2M (RNA polymerase II subunit M) | DRSC15513 | inactive
pira (pirate) | DRSC19494 | inactive
CG18367 | DRSC06545 | inactive
Hsp70Bb + Hsp70Bbb | DRSC15885 | inactive
CG13248 | DRSC11696 | inactive
Dscam1 (Down syndrome cell adhesion molecule 1) | DRSC05047 | inactive
Dscam1 (Down syndrome cell adhesion molecule 1) | DRSC05048 | inactive
Dscam1 (Down syndrome cell adhesion molecule 1) | DRSC07407 | inactive
Dscam1 (Down syndrome cell adhesion molecule 1) | DRSC21562 | inactive
Dscam1 (Down syndrome cell adhesion molecule 1) | DRSC22383 | inactive
Ca-beta (Ca2+-channel-protein-beta-subunit) | DRSC02406 | inactive
Ca-beta (Ca2+-channel-protein-beta-subunit) | DRSC02407 | inactive
Ca-beta (Ca2+-channel-protein-beta-subunit) | DRSC03285 | inactive
Ca-beta (Ca2+-channel-protein-beta-subunit) | DRSC21432 | inactive
RpS27 (Ribosomal protein S27) | DRSC14244 | inactive
CG17780 | DRSC15265 | inactive
CG10205 | DRSC05979 | inactive
CG12290 | DRSC14497 | inactive
Phlpp (PH domain leucine-rich repeat protein phosphatase) | DRSC02065 | inactive
Phlpp (PH domain leucine-rich repeat protein phosphatase) | DRSC22808 | inactive
CG15047 | DRSC19623 | inactive
CG15047 | DRSC21443 | inactive
tmod (tropomodulin) | DRSC13993 | inactive
tmod (tropomodulin) | DRSC14314 | inactive
tmod (tropomodulin) | DRSC15076 | inactive
tmod (tropomodulin) | DRSC17062 | inactive
PGRP-SC1b (Peptidoglycan recognition protein SC1b) | DRSC07215 | inactive
Aptx (aprataxin) | DRSC15768 | inactive
mRpL4 (mitochondrial ribosomal protein L4) | DRSC03562 | inactive
Opbp (Optix-binding protein) | DRSC04966 | inactive
stj (straightjacket) | DRSC06124 | inactive
CR31427 (pseudo) | DRSC22675 | inactive
CG14402 | DRSC02386 | inactive
side-IV + CG17025 (retired record) | DRSC15168 | inactive
rpk (ripped pocket) | DRSC12386 | inactive
rpk (ripped pocket) | DRSC21656 | inactive
PolZ1 (DNA polymerase zeta subunit 1) | DRSC06800 | inactive
Taf1 (TBP-associated factor 1) | DRSC12607 | inactive
MCPH1 (Microcephalin) | DRSC06309 | inactive
MCPH1 (Microcephalin) | DRSC07308 | inactive
MCPH1 (Microcephalin) | DRSC22536 | inactive
Pms2 | DRSC07511 | inactive
Nnf1b | DRSC22080 | inactive
isoQC (iso Glutaminyl cyclase) | DRSC11790 | inactive
CG9114 | DRSC20155 | inactive
CG18538 | DRSC06765 | inactive
CG7182 | DRSC10780 | inactive
CG7860 | DRSC20060 | inactive
PGRP-SB1 (Peptidoglycan recognition protein SB1) | DRSC11090 | inactive
CG12644 (retired record) | DRSC17850 | inactive
CG11590 | DRSC19411 | inactive
pck (pickel) | DRSC18565 | inactive
Rab35 | DRSC20691 | inactive
Pbgs (Porphobilinogen synthase) | DRSC09718 | inactive
CG17746 | DRSC08521 | inactive
Dgat2 (Diacylglycerol O-acyltransferase 2) | DRSC06803 | inactive
IntS6 (Integrator 6) | DRSC18281 | inactive
CG34267 | DRSC07881 | inactive
swaPsi (swallow pseudogene) | DRSC21685 | inactive
Pisd (Phosphatidylserine decarboxylase) | DRSC15935 | inactive
Gr22a (Gustatory receptor 22a) | DRSC22283 | inactive
Rbm13 (RNA-binding motif protein 13) | DRSC17749 | inactive
Irc (Immune-regulated catalase) | DRSC16454 | inactive
